Source: PubChem BioAssay AID651754 (NCATS, 2012).

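Living liver-derived HepG2 cells are treated for 1 hr and stained 30 min, and the dye's two-colour fluorescence shows whether mitochondrial potential collapses.
A titration series from roughly 0.00059 to 92 µM supplies the fitted potency.
Potency is the concentration giving half the fitted maximal effect; a lower value means a more potent disruptor.
Calls follow the dose-curve class and score, with scores of 1 to 39 marking inconclusive and 40 to 100 marking active.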

Values are in nM.
All entries here are filed as inconclusive.
Only part of the assay is shown, chiefly results filed as inconclusive.
A potency from a partial, single-point or poor curve is only a rough figure.
Some entries filed as inconclusive have a full curve.
The first word of each remark tells which way the curve ran; it can be opposite to the aim of the assay.
Activity scores are not listed here.
An entry listed twice with the same setting is a separate test.

Compound | fitted potency (nM) | curve
Cc1ccc(N=C=O)cc1N=C=O | 39810 | side channel, rising, partial curve
Cc1ccc(N)c(N)c1 | 2239 | side channel, rising, full curve
Nc1ccc(Cl)cc1[N+](=O)[O-] | 18833 | inhibitor, partial curve
O=[N+]([O-])c1cccc(O)c1 | 37578 | inhibitor, partial curve
CC(C)CC(C)Nc1ccc(Nc2ccccc2)cc1 (centres undefined) | 47307 | inhibitor, partial curve, poor fit
Brc1ccc(Oc2cc(Br)c(Br)cc2Br)c(Br)c1 | 891.3 | side channel, rising, full curve
ClC1=C(Cl)C2(Cl)C3C(Cl)C(Cl)CC3C1(Cl)C2(Cl)Cl (centres undefined) | 42163 | inhibitor, partial curve, poor fit
CN(C)c1ccc(N=Nc2ccccc2)cc1 | 42163 | inhibitor, partial curve
Nc1ccc([N+](=O)[O-])cc1O | 37578 | inhibitor, partial curve
ClC1=C(Cl)C2(Cl)C3C4CC(C5OC45)C3C1(Cl)C2(Cl)Cl (centres undefined) | 42163 | inhibitor, partial curve
Brc1ccc(Oc2cc(Br)c(Br)cc2Br)c(Br)c1 | 2818 | side channel, rising, full curve
C=C1C(CCl)(CCl)C2(Cl)C(Cl)C(Cl)C1(Cl)C2(Cl)Cl (centres undefined) | 47307 | inhibitor, partial curve
CCCOC(=O)c1ccccc1C(=O)OCCC | 42163 | inhibitor, partial curve
O=C1OC2(c3cc(Br)c(O)c(Br)c3Oc3c2cc(Br)c(O)c3Br)c2c(Cl)c(Cl)c(Cl)c(Cl)c21 | 33491 | activator, partial curve
c1ccc(N=NNc2ccccc2)cc1 | 47307 | inhibitor, partial curve
CCCCCCCCn1sccc1=O | 74978 | inhibitor, single point

Repeated from the top, 2 entries:

Cc1ccc(N=C=O)cc1N=C=O read fitted potency 39810 nM (side channel, rising, partial curve).
Cc1ccc(N)c(N)c1 read fitted potency 2239 nM (side channel, rising, full curve).